Test results reported in article PMC5256034.
Results are given in words; binding and its absence hold for the method and conditions named. In cells and extracts the contact can be indirect. Some results given as binding are weak or reduced against the parent protein; the word gives no strength. For part of these data: Where a sequence is shown, tags or fusion partners need not be part of it.

By UniProt entry, the sequences of proteins in these tests, tags left out.
UniProt P78396: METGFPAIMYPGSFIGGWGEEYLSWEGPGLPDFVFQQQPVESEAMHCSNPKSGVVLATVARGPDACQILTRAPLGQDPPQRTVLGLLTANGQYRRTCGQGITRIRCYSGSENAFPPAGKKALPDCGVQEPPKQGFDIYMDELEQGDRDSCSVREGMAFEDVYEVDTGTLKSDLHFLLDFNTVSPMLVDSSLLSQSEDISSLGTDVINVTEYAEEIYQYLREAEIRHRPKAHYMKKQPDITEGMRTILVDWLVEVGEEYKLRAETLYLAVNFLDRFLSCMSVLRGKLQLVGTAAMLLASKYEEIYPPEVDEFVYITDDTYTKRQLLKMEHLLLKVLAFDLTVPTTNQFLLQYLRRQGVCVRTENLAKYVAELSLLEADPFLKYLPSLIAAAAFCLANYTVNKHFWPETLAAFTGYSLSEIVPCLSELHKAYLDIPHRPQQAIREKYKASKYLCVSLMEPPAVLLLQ

Columns and labels:
Test in all cases: co-IP; HEK293 cells transfected with epitope-tagged proteins; lysis in 150 mM NaCl, 50 mM Tris pH 7.5, 1% Triton X-100; immobilized anti-Myc antibody, 4 °C overnight; western blot
[1] = target: Myc-tagged human cyclin A1 (CCNA1) (human) (UniProt P78396)
[2] = target: T1, Myc-tagged human cyclin I (CCNI) (human) (UniProt Q14094)
T1 sequence: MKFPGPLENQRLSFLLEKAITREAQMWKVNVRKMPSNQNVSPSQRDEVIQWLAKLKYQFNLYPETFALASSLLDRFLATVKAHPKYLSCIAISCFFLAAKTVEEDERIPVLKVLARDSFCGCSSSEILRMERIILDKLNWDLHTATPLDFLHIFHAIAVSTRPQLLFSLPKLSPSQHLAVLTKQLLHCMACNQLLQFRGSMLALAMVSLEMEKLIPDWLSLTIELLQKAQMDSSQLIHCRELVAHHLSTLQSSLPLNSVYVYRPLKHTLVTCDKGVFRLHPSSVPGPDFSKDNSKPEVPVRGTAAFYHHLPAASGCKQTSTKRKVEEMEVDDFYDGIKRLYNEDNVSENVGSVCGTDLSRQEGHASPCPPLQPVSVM

[3] = target: T2, Myc-tagged human cyclin I-like (CCNI2) (human) (UniProt Q6ZMN8)
T2 sequence: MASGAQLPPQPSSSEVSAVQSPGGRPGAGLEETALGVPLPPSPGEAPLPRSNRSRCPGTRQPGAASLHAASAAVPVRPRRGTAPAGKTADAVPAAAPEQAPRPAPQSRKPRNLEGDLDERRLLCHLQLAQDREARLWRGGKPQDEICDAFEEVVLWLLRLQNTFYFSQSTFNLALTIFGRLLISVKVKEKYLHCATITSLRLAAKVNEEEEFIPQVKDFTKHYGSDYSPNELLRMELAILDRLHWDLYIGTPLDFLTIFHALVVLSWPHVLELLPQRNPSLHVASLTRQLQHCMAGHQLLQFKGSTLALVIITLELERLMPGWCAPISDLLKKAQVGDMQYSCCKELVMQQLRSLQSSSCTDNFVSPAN

binding [1]: no binding | binding [2]: binds | binding [3]: binds
Substance: Flag-tagged human CDK5 (from UniProt Q00535 1-292) (enzyme)
